## Results from one PubChem assay

Data taken from PubChem BioAssay AID1159506, deposited by NCATS (2015).

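Luminescence from an EWS-FLI1 target-promoter (NR0B1) reporter, set against a CMV-promoter reporter, two days after silencing single genes in TC32 Ewing sarcoma cells.
Each siRNA was applied at 20 nM.
A z-score of the log NR0B1-over-CMV signal, less the median of siRNAs with the same seed; more negative means a stronger specific loss of the NR0B1 reporter.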

The strongest results of the screen are mostly left out here.
Sequences are the guide (antisense) strand, without overhang.

{"strand": "UGCAGUAUUAUGACGACUG", "gene": "SMC4", "seed-corrected z-score": "-0.5431"}
{"strand": "AUAGGAUCAGAGAAGCUCC", "gene": "WDR63", "seed-corrected z-score": "0.7524"}
{"strand": "UUUGUACCAACUUCACAUC", "gene": "CNOT6", "seed-corrected z-score": "0.4898"}
{"strand": "UACUUAUCCAAUUUGGUUG", "gene": "B4GALT5", "seed-corrected z-score": "-0.1183"}
{"strand": "UCGGAAACAGUUUUUGUGC", "gene": "CSRP2", "seed-corrected z-score": "0.2967"}
{"strand": "AUACAUCAAAUUUACUUCC", "gene": "PON1", "seed-corrected z-score": "0.152"}
{"strand": "ACAAGUUUGCCUGCGGUGG", "gene": "SDS", "seed-corrected z-score": "-0.02947"}
{"strand": "UUCAGAGUACUCAUCAUCC", "gene": "COL7A1", "seed-corrected z-score": "-1.38"}
{"strand": "UAUGGGACAGAUCCAACUC", "gene": "LRRC3C", "seed-corrected z-score": "-0.1967"}
{"strand": "UUAGGAUGUCCUGGGAUGU", "gene": "C1orf111", "seed-corrected z-score": "0.3677"}
{"strand": "UAUCUUGGAGGGUCGAUUG", "gene": "DDX19A", "seed-corrected z-score": "-0.3788"}
{"strand": "AAUUCGAUCAUCACCAUAC", "gene": "KIFAP3", "seed-corrected z-score": "0.05753"}
{"strand": "UGUUACUAAAUCGACCUCC", "gene": "AUH", "seed-corrected z-score": "-0.1019"}
{"strand": "UAUCUUAUGAUUCGUAAGG", "gene": "ZNF708", "seed-corrected z-score": "0.5715"}
{"strand": "AGCUCGUUUAGUCUGCUUC", "gene": "SYT13", "seed-corrected z-score": "-0.06329"}
{"strand": "AUCGGUUUGGAAAUAGGCC", "gene": "ARHGAP32", "seed-corrected z-score": "-0.6449"}
{"strand": "UCAAUGUCUCUAAGGGUGC", "gene": "C16orf86", "seed-corrected z-score": "-0.5799"}
{"strand": "UUUCCUUAUGAUAUUGUUG", "gene": "PSPC1", "seed-corrected z-score": "-0.01645"}
{"strand": "UUCUCCAUCAGUCCUAAGG", "gene": "CPT1C", "seed-corrected z-score": "0.1322"}
{"strand": "UGUCCUUGAACAUUAGCGG", "gene": "UNC5B", "seed-corrected z-score": "-0.5357"}
{"strand": "UAGGAUGGGUGGAUUCUCG", "gene": "NPY", "seed-corrected z-score": "-1.672"}
{"strand": "UCGGAUACCUUCUAACUUC", "gene": "PALD1", "seed-corrected z-score": "0.039"}
{"strand": "AAUCUGUACAUUUCGAAGU", "gene": "EFCAB9", "seed-corrected z-score": "-1.216"}
{"strand": "AUUGGGAUCCUUGUGAGCU", "gene": "THPO", "seed-corrected z-score": "0.0931"}
{"strand": "UUCUGUAAUCGCGACGAUA", "gene": "BCLAF1", "seed-corrected z-score": "-0.7625"}
{"strand": "AAUCUACUAAGAAGUAUUG", "gene": "FAM24B", "seed-corrected z-score": "0.7439"}
{"strand": "UCUUGUUCUGAUGAAAGCC", "gene": "SNAI3", "seed-corrected z-score": "0.4421"}
{"strand": "UUACUGAUUGGGAAAAACG", "gene": "ODF2L", "seed-corrected z-score": "0.6954"}
{"strand": "UGCAUUCCGGUGAAUUUGC", "gene": "ZC4H2", "seed-corrected z-score": "-0.7822"}
{"strand": "AUUCAUAUCACCCGUGCCC", "gene": "CTDP1", "seed-corrected z-score": "-0.6557"}
{"strand": "UUUCCUUUCAUAGAUGUAC", "gene": "RPSAP12", "seed-corrected z-score": "-0.02867"}
{"strand": "UAUGGAAAGGUAGAAAUCC", "gene": "CRTAP", "seed-corrected z-score": "-0.03639"}
{"strand": "UUUGGGCUAAGAAGAGCAG", "gene": "PHKA1P1", "seed-corrected z-score": "0.3656"}
{"strand": "UUUGUUUGACUCAUCAUCC", "gene": "ZHX3", "seed-corrected z-score": "0.5795"}

Repeated from the top, 3 entries:

{"strand": "UGCAGUAUUAUGACGACUG", "gene": "SMC4", "seed-corrected z-score": "-0.5431"}
{"strand": "AUAGGAUCAGAGAAGCUCC", "gene": "WDR63", "seed-corrected z-score": "0.7524"}
{"strand": "UUUGUACCAACUUCACAUC", "gene": "CNOT6", "seed-corrected z-score": "0.4898"}